# From PubChem BioAssay AID743255 (National Center for Advancing Translational Sciences (NCATS), 2014)
# By UniProt entry, the sequences of proteins in these tests, tags left out. Where a name states a change or a piece, a line headed by the entry shows the natural chain unless it says otherwise.
# UniProt O94782: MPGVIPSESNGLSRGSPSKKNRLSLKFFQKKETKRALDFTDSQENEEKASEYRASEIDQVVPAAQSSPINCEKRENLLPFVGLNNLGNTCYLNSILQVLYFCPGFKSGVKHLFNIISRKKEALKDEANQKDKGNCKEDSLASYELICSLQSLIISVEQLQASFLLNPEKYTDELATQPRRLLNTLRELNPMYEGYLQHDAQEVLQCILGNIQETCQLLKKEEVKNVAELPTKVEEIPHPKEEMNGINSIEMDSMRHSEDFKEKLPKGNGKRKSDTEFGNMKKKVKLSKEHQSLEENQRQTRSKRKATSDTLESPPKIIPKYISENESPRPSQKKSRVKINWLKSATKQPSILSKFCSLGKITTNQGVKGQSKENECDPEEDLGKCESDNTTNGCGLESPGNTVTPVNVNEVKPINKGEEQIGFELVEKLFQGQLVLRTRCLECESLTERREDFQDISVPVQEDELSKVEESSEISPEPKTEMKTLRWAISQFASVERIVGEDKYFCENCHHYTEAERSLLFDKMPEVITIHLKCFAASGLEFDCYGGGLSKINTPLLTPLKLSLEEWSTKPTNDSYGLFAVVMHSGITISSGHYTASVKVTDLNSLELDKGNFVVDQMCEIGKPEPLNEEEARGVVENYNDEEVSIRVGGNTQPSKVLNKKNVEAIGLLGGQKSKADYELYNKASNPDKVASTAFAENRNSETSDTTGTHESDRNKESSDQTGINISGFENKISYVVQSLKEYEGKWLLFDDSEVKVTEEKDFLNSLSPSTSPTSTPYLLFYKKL
# Hit rate of the full screen: of about 390,000 compounds, about 910 (0.23%) were called active. Inconclusive means that the source gave no clear call. Such entries were picked first, then a sample of the others. The call rests on the fitted dose curve; in most records, active means well fitted inhibition curve with a large enough effect; inconclusive means small, poorly fitted or top-dose-only effect; inactive means no such curve, though single readings can be large or run the other way. Potencies of inconclusive entries are doubtful fits and often do not repeat.
# Biological target: Ubiquitin carboxyl-terminal hydrolase 1 (Homo sapiens) (UniProt O94782)
# Test: Inhibitors of USP1/UAF1: Primary Screen; further: nearly all actives have a fitted effect of over 60% in size
# Settings: recombinant USP1/UAF1, Ub-Rhodamine cleavage fluorescence; activity change, negative = inhibition: at 57.1 µM (top of the series)
# Summary of the method: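 High-throughput fluorogenic screen: 1nM USP1/UAF1 complex, Ub-Rho substrate 150nM final, 50mM HEPES pH 7.8 with 0.5mM EDTA, 0.1 mg/ml BSA, 1mM TCEP and 0.01% Tween-20.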
# On the % scale 0 is the no-effect control and ±100 the full control effect; potency means the concentration at half of the fitted maximal effect.
Compound,Potency,"activity change, negative = inhibition"
COC(=O)C1=C(C)N(Cc2ccccc2)C(=S)N[C@H]1c1ccccc1,"inconclusive: 44.7 µM [inhibitor, partial curve]",
CC1OC(OC2C(CO)OC(OC3C(CO)OC(O)C(O)C3O)C(O)C2O)C(O)C(O)C1N[C@@H]1C=C(CO)[C@@H](O)C(O)[C@H]1O (some centres undefined),"inconclusive: 112 µM [inhibitor, partial curve, poor fit]",
COc1ccc(CCNC(=S)NNC(=O)c2c(Br)c(C)nn2C)cc1OC,inactive,
CCN1C(=O)C(Cc2nc3ccccc3c(=O)n2C)c2cc(C)ccc21 (centres undefined),inactive,
O=C(Nc1ccc(Cl)cc1)c1cc(S(=O)(=O)NC2CCCCCC2)ccc1F,"inconclusive: 0.794 µM [inhibitor, full curve, poor fit]",
O=C(c1ccccc1)c1ccc2c(c1)OCCCO2,inactive,
CCC(=O)N(CC)C1=C(O)c2ccccc2C(=O)C1=O,active: 25.1 µM,
Cc1cccc2cc(C(c3nnnn3CC3CCCO3)N3CCc4ccccc4C3)c(=O)[nH]c12 (centres undefined),"inconclusive: 35.5 µM [inhibitor, single point]",
CCOc1ccc(Br)cc1C1NC(=O)c2c(sc3c2CCN(C)C3)N1 (centres undefined),"inconclusive: 50.1 µM [inhibitor, single point]",
COc1cc(OC)cc(Oc2ccc(S(=O)(=O)N3CCCCC3)cc2[N+](=O)[O-])c1,inactive,
CCOC(=O)CSc1nc2c(sc(=S)n2-c2ccc(CC)cc2)c(=O)[nH]1,"inconclusive: 44.7 µM [inhibitor, partial curve]",
CCOC(=O)c1c(/N=C/N(C)C)sc(/C=N/Nc2ccccc2)c1-c1ccccc1,"inconclusive: 5.01 µM [inhibitor, full curve]",
CC(=O)Oc1ccc(CC(C(=O)O)N2C(=O)c3ccccc3C2=O)cc1 (centres undefined),inactive,
O=C(O)c1ccc(-n2ncc(Cl)c(Cl)c2=O)cc1,inactive,
Cc1cccc(CNC(=O)CN2C(=O)CSc3c2c(C)nn3-c2ccccc2)c1,"inconclusive: 39.8 µM [inhibitor, partial curve]",
COc1ccc(/C=C2\SC(=S)N(N3C(=O)CCC3=O)C2=O)cc1O,"inconclusive: 35.5 µM [inhibitor, partial curve, poor fit]",
O=C(Cc1ccc(Cl)cc1)Nc1ccc(CN2CCCCC2)cc1,"inconclusive: 0.126 µM [inhibitor, full curve, poor fit]",
O=C1OCCN1C(=O)[C@H]1[C@H](c2ccc(F)cc2)C(c2ccccc2)=NN1c1ccc(Br)cc1,"inconclusive: 15.8 µM [inhibitor, partial curve]",
Clc1ccc(OCCCCSc2ncccn2)cc1,inactive,
COc1ccc(NS(=O)(=O)c2ccc(OCC(=O)N3CCOCC3)cc2)cc1,inactive,
O=C(c1ccc(COc2ccccc2Br)o1)N1CCN(c2ccccn2)CC1,"inconclusive: 50.1 µM [inhibitor, partial curve, poor fit]",
COc1ccc(-c2cc(C(F)(F)F)nc(NCc3ccc(F)cc3)n2)cc1,"inconclusive: 0.794 µM [inhibitor, full curve, poor fit]",

Compound,Potency,"activity change, negative = inhibition"
O=C(NCC1CCCO1)C1CCN(C(=O)c2ccc(Cl)cc2)CC1 (centres undefined),inactive,
CC(=O)N1CCc2cc(Br)cc(S(=O)(=O)NCc3ccc(Cl)cc3)c21,"inconclusive: 3.16 µM [inhibitor, partial curve]",
COC(=O)Nc1ccc2c(c1)N(C(=O)CCN(C)C)c1ccccc1CC2,inactive,
Cc1ccc(S(=O)(=O)c2cc3cc(C(=O)Nc4ccc(C)cc4C)ccc3oc2=O)cc1,inactive,
CC(=O)c1ccsc1-c1c(C)cc2oc(=O)cc(-c3ccccc3)c2c1C,inactive,
O=C(CSc1nnc(-c2cccnc2)n1Cc1ccco1)N1c2ccccc2Sc2ccccc21,inactive,
CC(=O)Nc1ccc(C(=O)OCC(=O)NCc2ccc3c(c2)OCO3)cc1,"inconclusive: 7.94 µM [inhibitor, partial curve]",
Cc1cc(C)cc(NC(=O)C/C(N)=N/O)c1,"inconclusive: 1.78 µM [inhibitor, partial curve]",
CC(C)N(Cc1ccccc1)C(=O)COC(=O)c1c(F)cccc1F,"inconclusive: 56.2 µM [inhibitor, partial curve, poor fit]",
O=C(Oc1ccc2ccccc2c1Br)N1CCCCCC1,"inconclusive: 70.8 µM [inhibitor, partial curve, poor fit]",
CC1(OC(=O)CCc2ccccc2)C(=O)C=C2C=C(c3ccc(C#N)cc3)N(C3CC3)C=C2C1=O (centres undefined),"inconclusive: 44.7 µM [inhibitor, partial curve, poor fit]",
O=C(NCc1n[nH]c(=S)n1-c1ccc(F)cc1)c1ccc(S(=O)(=O)N2CCCCC2)cc1,"inconclusive: 39.8 µM [inhibitor, partial curve, poor fit]",
COc1ccc(OC)c(Nc2cc3ccccc3c(=O)[nH]2)c1,active: 5.01 µM,
COC(=O)c1c(-c2ccccc2OC)sc2ccccc12,"inconclusive: 35.5 µM [inhibitor, partial curve]",
O=C(COc1ccc(S(=O)(=O)N2CCCC2)cc1)NCc1ccccn1,"inconclusive: 1 µM [inhibitor, full curve, poor fit]",
O=C1CSC(=S)N1Cc1cccnc1,"inconclusive: 31.6 µM [inhibitor, partial curve]",
O=C(NCc1cccc(F)c1)c1cccc2c1C(=O)c1ccc(N3CCCC3)cc1S2(=O)=O,"inconclusive: 11.2 µM [inhibitor, partial curve, poor fit]",
CN(CC1CCOCC1)C(=O)CC1C(=O)NCCN1CC1CCCCC1 (centres undefined),"inconclusive: 35.5 µM [inhibitor, single point]",
O=C(O)c1ccc(NS(=O)(=O)c2ccc3c(c2)C(=O)c2cc(S(=O)(=O)Nc4ccc(C(=O)O)cc4)ccc2-3)cc1,"inconclusive: 44.7 µM [inhibitor, partial curve, poor fit]",
CC(C)C(=O)Nc1cccc(COc2ccccc2CN(Cc2ccccc2)C(=O)OC(C)(C)C)c1,"inconclusive: 89.1 µM [inhibitor, partial curve, poor fit]",
Nc1c(C(=O)c2ccccc2)sc(Nc2ccc(Cl)c(Cl)c2)c1C(=O)Nc1ccccc1,"inconclusive: 56.2 µM [inhibitor, partial curve, poor fit]",
Fc1ccc(CN2CC[C@H]3C=CCc4cccc(c43)C2)cc1,"inconclusive: 0.282 µM [inhibitor, full curve, poor fit]",

# Single records, from the list above:
# O=C(Cc1ccc(Cl)cc1)Nc1ccc(CN2CCCCC2)cc1 is listed with Potency: inconclusive: 0.126 µM [inhibitor, full curve, poor fit]
# Fc1ccc(CN2CC[C@H]3C=CCc4cccc(c43)C2)cc1 is listed with Potency: inconclusive: 0.282 µM [inhibitor, full curve, poor fit]
# COC(=O)c1c(-c2ccccc2OC)sc2ccccc12 is listed with Potency: inconclusive: 35.5 µM [inhibitor, partial curve]

# Further structures follow:

Compound,Potency,"activity change, negative = inhibition"
COc1ccc(NC(=O)CSc2oc(-c3ccco3)nc2S(=O)(=O)c2ccccc2)c(OC)c1,"inconclusive: 8.91 µM [inhibitor, partial curve, poor fit]",
COc1ccc(C(=O)Nc2nc3c(s2)Cc2cc(OC)ccc2-3)cc1,inactive,
CCOc1ccc(NC(=O)CSc2nc(=O)[nH]c3c2CCC3)cc1,"inconclusive: 28.2 µM [inhibitor, single point]",
N#CC1=C2SCN(Cc3ccccc3)CN2C(=O)CC1c1ccccc1F (centres undefined),inactive,
O=C(c1ccccc1)C1(c2ccccc2)OC1c1ccccc1 (centres undefined),,inconclusive: -5.38% [inhibitor]
COc1ccc(OC)c(-c2csc(NC(=O)COC(=O)C3CCC3)n2)c1,"inconclusive: 50.1 µM [inhibitor, partial curve, poor fit]",
CC1=C(C#N)C(c2ccc(O)cc2)C2=C(CCCC2=O)N1 (centres undefined),"inconclusive: 7.08 µM [inhibitor, single point]",
O=C(c1cc2ccccc2o1)N1CCN(c2ncccn2)CC1,"inconclusive: 11.2 µM [inhibitor, single point]",
CCc1cc2c(cc3c(=O)n(CC(=O)NCCOC)nc(CC)n32)s1,"inconclusive: 0.794 µM [inhibitor, full curve, poor fit]",
Cc1cccc(C(=O)N2CCc3cc(CNS(=O)(=O)c4cccs4)ccc32)c1,"inconclusive: 31.6 µM [inhibitor, single point]",
CC(C)(C)OC(=O)NCCCC[C@H](NC(=O)c1[nH]cnc1C(=O)Nc1ccc(CNC(=O)OC(C)(C)C)cc1)C(=O)OC(C)(C)C,"inconclusive: 126 µM [inhibitor, partial curve]",
O=C(/C(=C/O)N=Nc1cccc(C(F)(F)F)c1)c1ccccc1,inactive,
COc1ccc(C(=O)NCC(c2ccc3c(c2)OCO3)N2CCOCC2)cc1OC (centres undefined),"inconclusive: 31.6 µM [inhibitor, partial curve, poor fit]",
O=C(Nc1ccc(-c2csc(Nc3ccccc3)n2)cc1)c1cc([N+](=O)[O-])cc(C(F)(F)F)c1,"inconclusive: 79.4 µM [inhibitor, partial curve, poor fit]",
CCOc1ccc(/C=C/c2nc(C#N)c(NCCCOC)o2)cc1,inactive,
CC(C)(C)OC(=O)N[C@@H](C(=O)OC(C)(C)C)c1ccc(Br)cc1,"inconclusive: 44.7 µM [inhibitor, partial curve]",
COc1ccc(-c2cc3ccc(O)c(CN4CCCC4)c3oc2=O)cc1OC,"inconclusive: 10 µM [inhibitor, full curve, poor fit]",
Cc1ccc(-c2nnc(Nc3ccccc3)o2)cc1,inactive,
CC(C)c1ccc(CNC(=O)CSCC(=O)Nc2ccc3ccccc3c2)cc1,"inconclusive: 44.7 µM [inhibitor, partial curve, poor fit]",
CC(=O)OC[C@H]1O[C@@H](Oc2cc(O)cc3oc(-c4ccc(O)cc4)cc(=O)c23)[C@H](O[C@@H]2O[C@@H](C)[C@H](O)[C@@H](O)[C@H]2O)[C@@H](O)[C@@H]1O,"inconclusive: 50.1 µM [inhibitor, partial curve, poor fit]",
